{"source": "the supplement of paper PMC4604168 (melanoma cell lines)", "note": "This is one part of the list. Many values rest on one well or one pass, so single values are uncertain.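 Cells were imaged in 1,536-well plates, and nuclei stained with an antibody against cleaved PARP were counted against all DNA-stained nuclei to give the apoptosis fraction. Screening doses were chosen to leave most cells alive, and resting and induced cleaved-PARP levels differ strongly between cell lines.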", "data": [{"tested_on": "WM3526", "test": "cleaved PARP positive nuclei fraction relative to DMSO control; melanoma cells; higher = more apoptosis", "details": "library dose: low library concentration; 72 h", "units": {"cleaved PARP positive nuclei fraction": "%"}, "values": [{"molecule": "C[C@]12O[C@H](C[C@]1(O)CO)n1c3ccccc3c3c4c(c5c6ccccc6n2c5c31)CNC4=O", "note": "[Lestaurtinib] + O=C(CCCCCCC(=O)Nc1ccccc1)NO [vorinostat] (first compound 0.004 µM, partner dose 0.08 µM)", "cleaved PARP positive nuclei fraction": 69.6}, {"molecule": "CCCCCCCCc1ccc(CCC(N)(CO)CO)cc1", "note": "[fingolimod] + N.N.[Cl][Pt][Cl] [cisplatin] (first compound 2 µM, partner dose 1.6 µM)", "cleaved PARP positive nuclei fraction": 104}, {"molecule": "Cc1ccc(Nc2nccc(N(C)c3ccc4c(C)n(C)nc4c3)n2)cc1S(N)(=O)=O", "note": "[Pazopanib] + C/C(O)=C(\\C#N)C(=O)Nc1cc(Br)ccc1Br [LFM-A13] (first compound 0.4 µM, partner dose 2 µM)", "cleaved PARP positive nuclei fraction": 68.8}, {"molecule": "C[C@]12O[C@H](C[C@]1(O)CO)n1c3ccccc3c3c4c(c5c6ccccc6n2c5c31)CNC4=O", "note": "[Lestaurtinib] + O=C(Nc1cccc(Cl)c1)Nc1ncc(CCNc2ncnc3ccsc23)s1 [SNS314] (first compound 0.004 µM, partner dose 0.0008 µM)", "cleaved PARP positive nuclei fraction": 48.4}, {"molecule": "C[C@]12O[C@H](C[C@]1(O)CO)n1c3ccccc3c3c4c(c5c6ccccc6n2c5c31)CNC4=O", "note": "[Lestaurtinib] + O=C(Oc1ccc([N+](=O)[O-])cc1)N1CCC(C(O)(c2ccc3c(c2)OCO3)c2ccc3c(c2)OCO3)CC1 [JZL184] (first compound 0.004 µM, partner dose 1 µM)", "cleaved PARP positive nuclei fraction": 74.9}, {"molecule": "Cn1cc(C2=C(c3cn(C4CCN(Cc5ccccn5)CC4)c4ccccc34)C(=O)NC2=O)c2ccccc21", "note": "[Enzastaurin] + CC(=O)c1c(C)c2cnc(Nc3ccc(N4CCNCC4)cn3)nc2n(C2CCCC2)c1=O [palbociclib] (first compound 0.8 µM, partner dose 0.04 µM)", "cleaved PARP positive nuclei fraction": 175}, {"molecule": "C[As](C)SC[C@H](NC(=O)CC[C@H](N)C(=O)O)C(=O)NCC(=O)O", "note": "[Darinaparsin] + Cn1nnc2c(C(N)=O)ncn2c1=O [temozolomide] (first compound 0.4 µM, partner dose 2 µM)", "cleaved PARP positive nuclei fraction": 58.6}, {"molecule": "Cn1c(=O)n(-c2ccc(C(C)(C)C#N)cc2)c2c3cc(-c4cnc5ccccc5c4)ccc3ncc21", "note": "+ C/C(O)=C(\\C#N)C(=O)Nc1cc(Br)ccc1Br [LFM-A13] (first compound 0.004 µM, partner dose 2 µM)", "cleaved PARP positive nuclei fraction": 88.4}, {"molecule": "CC(C)(C)c1cnc(CSc2cnc(NC(=O)C3CCNCC3)s2)o1", "note": "+ O=C(Oc1ccc([N+](=O)[O-])cc1)N1CCC(C(O)(c2ccc3c(c2)OCO3)c2ccc3c(c2)OCO3)CC1 [JZL184] (first compound 0.01 µM, partner dose 1 µM)", "cleaved PARP positive nuclei fraction": 71.5}, {"molecule": "N.N.[Cl][Pt][Cl]", "note": "[cisplatin] + COc1ccc2c(c1)CCC1C2CCC2(C)C(NCCCCCCN3C(=O)C=CC3=O)CCC12 [U73122] (first compound 1.6 µM, partner dose 0.4 µM)", "cleaved PARP positive nuclei fraction": 90.1}, {"molecule": "Cc1cc(SCc2sc(-c3ccc(C(F)(F)F)c(F)c3)nc2C)ccc1OCC(=O)O", "note": "+ Oc1cc(-c2nc(-c3ccccc3)[nH]c2-c2ccncc2)ccc1Cl [L779450] (first compound 2 µM, partner dose 0.2 µM)", "cleaved PARP positive nuclei fraction": 93.5}, {"molecule": "CC1(C)CCC(c2ccc(Cl)cc2)=C(CN2CCN(c3ccc(C(=O)NS(=O)(=O)c4ccc(N[C@H](CCN5CCOCC5)CSc5ccccc5)c(S(=O)(=O)C(F)(F)F)c4)cc3)CC2)C1", "note": "+ O=C(Oc1ccc([N+](=O)[O-])cc1)N1CCC(C(O)(c2ccc3c(c2)OCO3)c2ccc3c(c2)OCO3)CC1 [JZL184] (first compound 0.4 µM, partner dose 1 µM)", "cleaved PARP positive nuclei fraction": 82.6}, {"molecule": "CS(=O)(=O)c1ccc(C(=O)Nc2ccc(Cl)c(-c3ccccn3)c2)c(Cl)c1", "note": "[vismodegib] + N.N.[Cl][Pt][Cl] [cisplatin] (first compound 1 µM, partner dose 1.6 µM)", "cleaved PARP positive nuclei fraction": 46.6}, {"molecule": "O=C(/C=C/c1cccnc1)NCCCCC1CCN(C(=O)c2ccccc2)CC1", "note": "+ C/C(O)=C(\\C#N)C(=O)Nc1cc(Br)ccc1Br [LFM-A13] (first compound 0.01 µM, partner dose 2 µM)", "cleaved PARP positive nuclei fraction": 66.2}, {"molecule": "C[As](C)SC[C@H](NC(=O)CC[C@H](N)C(=O)O)C(=O)NCC(=O)O", "note": "[Darinaparsin] + Cn1cc(/C=C2\\C(=O)Nc3cccnc32)c2ccccc21 [GW441756] (first compound 0.4 µM, partner dose 0.4 µM)", "cleaved PARP positive nuclei fraction": 248}, {"molecule": "C[As](C)SC[C@H](NC(=O)CC[C@H](N)C(=O)O)C(=O)NCC(=O)O", "note": "[Darinaparsin] + COCC[n+]1c2c(n(Cc3cnccn3)c1C)C(=O)c1ccccc1C2=O [YM155] (first compound 0.4 µM, partner dose 0.0004 µM)", "cleaved PARP positive nuclei fraction": 101}, {"molecule": "COc1cc2c(Oc3ccc4[nH]c(C)cc4c3F)ncnc2cc1OCCCN1CCCC1", "note": "[cediranib] + Cc1cc(SCc2sc(-c3ccc(C(F)(F)F)c(F)c3)nc2C)ccc1OCC(=O)O [GW0742] (first compound 0.4 µM, partner dose 2 µM)", "cleaved PARP positive nuclei fraction": 58}, {"molecule": "C[C@]12O[C@H](C[C@]1(O)CO)n1c3ccccc3c3c4c(c5c6ccccc6n2c5c31)CNC4=O", "note": "[Lestaurtinib] + Cn1c(=O)n(-c2ccc(C(C)(C)C#N)cc2)c2c3cc(-c4cnc5ccccc5c4)ccc3ncc21 [NVP-BEZ235] (first compound 0.004 µM, partner dose 0.004 µM)", "cleaved PARP positive nuclei fraction": 198}, {"molecule": "CN(C)S(=O)(=O)c1ccc2c(c1)/C(=C/c1cc3c([nH]1)CCCC3)C(=O)N2", "note": "+ O=C(Oc1ccc([N+](=O)[O-])cc1)N1CCC(C(O)(c2ccc3c(c2)OCO3)c2ccc3c(c2)OCO3)CC1 [JZL184] (first compound 0.4 µM, partner dose 1 µM)", "cleaved PARP positive nuclei fraction": 56.2}, {"molecule": "Cc1cc(Nc2cc(N3CCN(C)CC3)nc(/C=C/c3ccccc3)n2)n[nH]1", "note": "+ Cc1cc(SCc2sc(-c3ccc(C(F)(F)F)c(F)c3)nc2C)ccc1OCC(=O)O [GW0742] (first compound 0.04 µM, partner dose 2 µM)", "cleaved PARP positive nuclei fraction": 59}, {"molecule": "N.N.[Cl][Pt][Cl]", "note": "[cisplatin] + COc1cc2ncnc(Nc3ccc(Oc4ccccc4)cc3)c2cc1OC [SrcI1] (first compound 1.6 µM, partner dose 2 µM)", "cleaved PARP positive nuclei fraction": 351}, {"molecule": "O=c1[nH]nc(Sc2ncc([N+](=O)[O-])s2)n1-c1ccc2c(c1)OCCO2", "note": "+ O=C(Oc1ccc([N+](=O)[O-])cc1)N1CCC(C(O)(c2ccc3c(c2)OCO3)c2ccc3c(c2)OCO3)CC1 [JZL184] (first compound 0.2 µM, partner dose 1 µM)", "cleaved PARP positive nuclei fraction": 357}, {"molecule": "N.N.[Cl][Pt][Cl]", "note": "[cisplatin] + O=C(O)c1ccc(-c2c[nH]c3ncc(-c4ccccc4)cc23)cc1C1CCCC1 [GSK650394] (first compound 1.6 µM, partner dose 0.16 µM)", "cleaved PARP positive nuclei fraction": 365}, {"molecule": "Cn1cc(C2=C(c3cn(C4CCN(Cc5ccccn5)CC4)c4ccccc34)C(=O)NC2=O)c2ccccc21", "note": "[Enzastaurin] + CNC(=O)c1cc(Oc2ccc(NC(=O)Nc3ccc(Cl)c(C(F)(F)F)c3)cc2)ccn1 [sorafenib] (first compound 0.8 µM, partner dose 0.4 µM)", "cleaved PARP positive nuclei fraction": 74.4}, {"molecule": "O=c1[nH]nc(Sc2ncc([N+](=O)[O-])s2)n1-c1ccc2c(c1)OCCO2", "note": "+ C[As](C)SC[C@H](NC(=O)CC[C@H](N)C(=O)O)C(=O)NCC(=O)O [Darinaparsin] (first compound 0.2 µM, partner dose 0.4 µM)", "cleaved PARP positive nuclei fraction": 55.4}, {"molecule": "N#CC[C@H](C1CCCC1)n1cc(-c2ncnc3[nH]ccc23)cn1", "note": "[ruxolitinib] + Cn1cc(C2=C(c3cn(C4CCN(Cc5ccccn5)CC4)c4ccccc34)C(=O)NC2=O)c2ccccc21 [Enzastaurin] (first compound 1 µM, partner dose 0.8 µM)", "cleaved PARP positive nuclei fraction": 29.8}, {"molecule": "Cc1cn(-c2cc(NC(=O)c3ccc(C)c(Nc4nccc(-c5cccnc5)n4)c3)cc(C(F)(F)F)c2)cn1", "note": "[nilotinib] + C/C(O)=C(\\C#N)C(=O)Nc1cc(Br)ccc1Br [LFM-A13] (first compound 0.2 µM, partner dose 2 µM)", "cleaved PARP positive nuclei fraction": 53.5}, {"molecule": "C[As](C)SC[C@H](NC(=O)CC[C@H](N)C(=O)O)C(=O)NCC(=O)O", "note": "[Darinaparsin] + Cc1cc(N2CCOCC2)cc2[nH]c(-c3c(NC[C@@H](O)c4cccc(Cl)c4)cc[nH]c3=O)nc12 [BMS536924] (first compound 0.4 µM, partner dose 0.2 µM)", "cleaved PARP positive nuclei fraction": 130}, {"molecule": "N.N.[Cl][Pt][Cl]", "note": "[cisplatin] + Nc1ccn([C@@H]2O[C@H](CO)[C@@H](O)C2(F)F)c(=O)n1 [gemcitabine] (first compound 1.6 µM, partner dose 0.0004 µM)", "cleaved PARP positive nuclei fraction": 136}, {"molecule": "CC(C)C[C@H](NC(=O)[C@H](Cc1ccccc1)NC(=O)c1cnccn1)B(O)O", "note": "[Bortezomib] + O=C(Oc1ccc([N+](=O)[O-])cc1)N1CCC(C(O)(c2ccc3c(c2)OCO3)c2ccc3c(c2)OCO3)CC1 [JZL184] (first compound 0.001 µM, partner dose 1 µM)", "cleaved PARP positive nuclei fraction": 114}, {"molecule": "Cc1cc([N+](=O)[O-])ccc1NS(=O)(=O)c1cc(Cl)ccc1Cl", "note": "+ O=C(Oc1ccc([N+](=O)[O-])cc1)N1CCC(C(O)(c2ccc3c(c2)OCO3)c2ccc3c(c2)OCO3)CC1 [JZL184] (first compound 1 µM, partner dose 1 µM)", "cleaved PARP positive nuclei fraction": 64.4}]}]}
